This is one part of the list.
Legend:
Assay in all cases: glycan array binding signal (z-score within array); higher = stronger binding
Conditions in all cases: glycan notation: IUPAC condensed, linker removed
Kdn(a2-3)Gal(b1-4)Glc = molecular target: Kdn(a2-3)Gal(b1-4)Glc
Summary of the method: (§1)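 From the Consortium for Functional Glycomics database, 3228 arrays were curated, keeping only those whose protein sequence was available. Binding is given as a within-array Z-score averaged across arrays sharing a protein sequence and across linkers. Negative Z-scores can be read as non-binding.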

Kdn(a2-3)Gal(b1-4)GlcNAc = molecular target: Kdn(a2-3)Gal(b1-4)GlcNAc
Summary of the method: as §1

[1] = molecular target: Kdn(a2-3)Gal(b1-4)[Fuc(a1-3)]GlcNAc
Summary of the method: as §1

Kdn(a2-6)Gal(b1-4)GlcNAc = molecular target: Kdn(a2-6)Gal(b1-4)GlcNAc
Summary of the method: as §1

[2] = molecular target: Man(a1-2)Man(a1-2)Man(a1-3)Man
Summary of the method: as §1

[3] = molecular target: Man(a1-2)Man(a1-2)Man(a1-6)[Man(a1-3)]Man
Summary of the method: as §1

Man(a1-2)Man(a1-3)Man = molecular target: Man(a1-2)Man(a1-3)Man
Summary of the method: as §1

[4] = molecular target: Man(a1-2)Man(a1-3)[Man(a1-2)Man(a1-6)]Man
Summary of the method: as §1

[5] = molecular target: Man(a1-2)Man(a1-3)[Man(a1-2)Man(a1-6)]Man(a1-6)[Man(a1-2)Man(a1-2)Man(a1-3)]Man
Summary of the method: as §1

[6] = molecular target: Man(a1-2)Man(a1-3)[Man(a1-2)Man(a1-6)]Man(a1-6)[Man(a1-2)Man(a1-2)Man(a1-3)]Man(b1-4)GlcNAc(b1-4)GlcNAc
Summary of the method: as §1

[7] = molecular target: Man(a1-2)Man(a1-3)[Man(a1-6)]Man(a1-6)[Man(a1-2)Man(a1-3)]Man(b1-4)GlcNAc(b1-4)GlcNAc
Summary of the method: as §1

[8] = molecular target: Man(a1-2)Man(a1-6)[Man(a1-3)]Man(a1-6)[Man(a1-2)Man(a1-2)Man(a1-3)]Man
Summary of the method: as §1

[9] = molecular target: Man(a1-2)Man(a1-6)[Man(a1-3)]Man(a1-6)[Man(a1-2)Man(a1-2)Man(a1-3)]Man(b1-4)GlcNAc(b1-4)GlcNAc
Summary of the method: as §1

Man(a1-3)[Man(a1-6)]Man = molecular target: Man(a1-3)[Man(a1-6)]Man
Summary of the method: as §1

[10] = molecular target: Man(a1-3)[Man(a1-6)]Man(a1-6)[Man(a1-2)Man(a1-3)]Man(b1-4)GlcNAc(b1-4)GlcNAc
Summary of the method: as §1

[11] = molecular target: Man(a1-3)[Man(a1-6)]Man(a1-6)[Man(a1-3)]Man
Summary of the method: as §1

[12] = molecular target: Man(a1-3)[Man(a1-6)]Man(a1-6)[Man(a1-3)]Man(b1-4)GlcNAc(b1-4)GlcNAc
Summary of the method: as §1

[13] = molecular target: Man(a1-3)[Man(a1-6)]Man(b1-4)GlcNAc(b1-4)GlcNAc
Summary of the method: as §1

[14] = molecular target: Man(a1-3)[Man(a1-6)]Man(b1-4)GlcNAc(b1-4)[Fuc(a1-6)]GlcNAc
Summary of the method: as §1

Man(a1-6)Man = molecular target: Man(a1-6)Man
Summary of the method: as §1

Man(b1-4)GlcNAc = molecular target: Man(b1-4)GlcNAc
Summary of the method: as §1

MurNAc(b1-4)GlcNAc = molecular target: MurNAc(b1-4)GlcNAc
Summary of the method: as §1

Neu5Ac(a2-3)Gal = molecular target: Neu5Ac(a2-3)Gal
Summary of the method: as §1

[15] = molecular target: Neu5Ac(a2-3)Gal(b1-3)GalNAc
Summary of the method: as §1

[16] = molecular target: Neu5Ac(a2-3)Gal(b1-3)GalNAc(b1-3)Gal(a1-4)Gal(b1-4)Glc
Summary of the method: as §1

[17] = molecular target: Neu5Ac(a2-3)Gal(b1-3)GalNAc(b1-4)[Neu5Ac(a2-3)]Gal(b1-4)Glc
Summary of the method: as §1

[18] = molecular target: Neu5Ac(a2-3)Gal(b1-3)GalNAc(b1-4)[Neu5Ac(a2-8)Neu5Ac(a2-3)]Gal(b1-4)Glc
Summary of the method: as §1

[19] = molecular target: Neu5Ac(a2-3)Gal(b1-3)GalNAc6S
Summary of the method: as §1

[20] = molecular target: Neu5Ac(a2-3)Gal(b1-3)GlcNAc
Summary of the method: as §1

[21] = molecular target: Neu5Ac(a2-3)Gal(b1-3)GlcNAc(b1-2)Man
Summary of the method: as §1

[22] = molecular target: Neu5Ac(a2-3)Gal(b1-3)GlcNAc(b1-2)Man(a1-3)[GlcNAc(b1-4)][Neu5Ac(a2-3)Gal(b1-3)GlcNAc(b1-2)Man(a1-6)]Man(b1-4)GlcNAc(b1-4)GlcNAc
Summary of the method: as §1

[23] = molecular target: Neu5Ac(a2-3)Gal(b1-3)GlcNAc(b1-2)Man(a1-3)[Neu5Ac(a2-3)Gal(b1-3)GlcNAc(b1-2)Man(a1-6)]Man(b1-4)GlcNAc(b1-4)GlcNAc
Summary of the method: as §1

[24] = molecular target: Neu5Ac(a2-3)Gal(b1-3)GlcNAc(b1-3)Gal(b1-3)GlcNAc
Summary of the method: as §1

[25] = molecular target: Neu5Ac(a2-3)Gal(b1-3)GlcNAc(b1-3)Gal(b1-4)GlcNAc
Summary of the method: as §1

[26] = molecular target: Neu5Ac(a2-3)Gal(b1-3)GlcNAc(b1-3)GalNAc
Summary of the method: as §1

[27] = molecular target: Neu5Ac(a2-3)Gal(b1-3)GlcNAc(b1-4)Gal(b1-4)Glc
Summary of the method: as §1

[28] = molecular target: Neu5Ac(a2-3)Gal(b1-3)GlcNAc(b1-6)GalNAc
Summary of the method: as §1

[29] = molecular target: Neu5Ac(a2-3)Gal(b1-3)GlcNAc6S
Summary of the method: as §1

B1: AntigenI/IIC123 (Streptococcus mutans), C9E3B4 (protein)
chain: MASMTGGQQMGRIHFHYFKLAVQPQVNKEIRNNNDINIDRTLVAKQSVVKFQLKTADLPAGRDETTSFVLVDPLPSGYQFNPEATKAASPGFDVTYDNATNTVTFKATAATLATFNADLTKSVATIYPTVVGQVLNDGATYKNNFTLTVNDAYGIKSNVVRVTTPGKPNDPDNPNNNYIKPTKVNKNENGVVIDGKTVLAGSTNYYELTWDLDQYKNDRSSADTIQKGFYYVDDYPEEALELRQDLVKITDANGNEVTGVSVDNYTNLEAAPQEIRDVLSKAGIRPKGAFQIFRADNPREFYDTYVKTGIDLKIVSPMVVKKQMGQTGGSYENQAYQIDFGNGYASNIIINNVPKINPKKDVTLTLDPADTNNVDGQTIPLNTVFNYRLIGGIIPADHSEELFEYNFYDDYDQTGDHYTGQYKVFAKVDITFKDGSIIKSGAELTQYTTAEVDTAKGAITIKFKEAFLRSVSIDSAFQAESYIQMKRIAVGTFENTYINTVNGVTYSSLEHHHHHH
glycan array binding signal (z-score) (Kdn(a2-3)Gal(b1-4)Glc): 0.395 | glycan array binding signal (z-score) (Kdn(a2-3)Gal(b1-4)GlcNAc): -0.458 | glycan array binding signal (z-score) [1]: 0.505 | glycan array binding signal (z-score) (Kdn(a2-6)Gal(b1-4)GlcNAc): 0.238 | glycan array binding signal (z-score) [2]: -0.117 | glycan array binding signal (z-score) [3]: 0.586 | glycan array binding signal (z-score) (Man(a1-2)Man(a1-3)Man): -0.486 | glycan array binding signal (z-score) [4]: -0.933 | glycan array binding signal (z-score) [5]: -0.734 | glycan array binding signal (z-score) [6]: 0.792 | glycan array binding signal (z-score) [7]: -0.274 | glycan array binding signal (z-score) [8]: -0.547 | glycan array binding signal (z-score) [9]: -0.882 | glycan array binding signal (z-score) (Man(a1-3)[Man(a1-6)]Man): -0.563 | glycan array binding signal (z-score) [10]: 1.1 | glycan array binding signal (z-score) [11]: -0.54 | glycan array binding signal (z-score) [12]: 0.117 | glycan array binding signal (z-score) [13]: 0.013 | glycan array binding signal (z-score) [14]: -0.768 | glycan array binding signal (z-score) (Man(a1-6)Man): 0.346 | glycan array binding signal (z-score) (Man(b1-4)GlcNAc): -0.494 | glycan array binding signal (z-score) (MurNAc(b1-4)GlcNAc): 0.064 | glycan array binding signal (z-score) (Neu5Ac(a2-3)Gal): -0.677 | glycan array binding signal (z-score) [15]: -0.563 | glycan array binding signal (z-score) [16]: 0.243 | glycan array binding signal (z-score) [17]: -0.634 | glycan array binding signal (z-score) [18]: -0.246 | glycan array binding signal (z-score) [19]: -1.07 | glycan array binding signal (z-score) [20]: -0.489 | glycan array binding signal (z-score) [21]: 1 | glycan array binding signal (z-score) [22]: 0.141 | glycan array binding signal (z-score) [23]: 0.211 | glycan array binding signal (z-score) [24]: -1.17 | glycan array binding signal (z-score) [25]: -0.275 | glycan array binding signal (z-score) [26]: 0.196 | glycan array binding signal (z-score) [27]: -0.775 | glycan array binding signal (z-score) [28]: 0.391 | glycan array binding signal (z-score) [29]: -0.509

— the supplement of paper PMC8728848
